Measurements: the supplement of paper PMC6411743
± gives the standard deviation of the averaged measurements. The list shows a part of the results.

Amino acid sequences for entries named in this document (tags omitted). A change or cut given only in a name is not applied to a line headed by its entry.
UniProt P13807: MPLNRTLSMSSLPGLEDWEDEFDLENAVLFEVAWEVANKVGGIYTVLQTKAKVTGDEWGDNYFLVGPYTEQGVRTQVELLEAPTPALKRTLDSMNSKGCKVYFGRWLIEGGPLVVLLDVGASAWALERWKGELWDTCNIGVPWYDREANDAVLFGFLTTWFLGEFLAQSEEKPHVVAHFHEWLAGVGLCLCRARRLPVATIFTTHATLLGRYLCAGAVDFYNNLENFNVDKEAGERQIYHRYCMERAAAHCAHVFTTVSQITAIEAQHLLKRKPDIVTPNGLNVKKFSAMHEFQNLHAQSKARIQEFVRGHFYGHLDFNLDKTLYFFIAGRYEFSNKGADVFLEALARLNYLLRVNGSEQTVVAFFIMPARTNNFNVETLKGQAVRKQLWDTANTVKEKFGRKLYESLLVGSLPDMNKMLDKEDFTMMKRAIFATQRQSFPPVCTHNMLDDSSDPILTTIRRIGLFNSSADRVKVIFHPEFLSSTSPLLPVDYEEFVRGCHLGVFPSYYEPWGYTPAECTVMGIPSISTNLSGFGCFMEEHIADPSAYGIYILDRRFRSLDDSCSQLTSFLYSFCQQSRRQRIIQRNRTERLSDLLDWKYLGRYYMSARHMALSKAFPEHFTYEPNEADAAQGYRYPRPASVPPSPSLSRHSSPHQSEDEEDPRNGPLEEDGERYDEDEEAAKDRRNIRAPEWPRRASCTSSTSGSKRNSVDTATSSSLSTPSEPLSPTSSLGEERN
UniProt P26640: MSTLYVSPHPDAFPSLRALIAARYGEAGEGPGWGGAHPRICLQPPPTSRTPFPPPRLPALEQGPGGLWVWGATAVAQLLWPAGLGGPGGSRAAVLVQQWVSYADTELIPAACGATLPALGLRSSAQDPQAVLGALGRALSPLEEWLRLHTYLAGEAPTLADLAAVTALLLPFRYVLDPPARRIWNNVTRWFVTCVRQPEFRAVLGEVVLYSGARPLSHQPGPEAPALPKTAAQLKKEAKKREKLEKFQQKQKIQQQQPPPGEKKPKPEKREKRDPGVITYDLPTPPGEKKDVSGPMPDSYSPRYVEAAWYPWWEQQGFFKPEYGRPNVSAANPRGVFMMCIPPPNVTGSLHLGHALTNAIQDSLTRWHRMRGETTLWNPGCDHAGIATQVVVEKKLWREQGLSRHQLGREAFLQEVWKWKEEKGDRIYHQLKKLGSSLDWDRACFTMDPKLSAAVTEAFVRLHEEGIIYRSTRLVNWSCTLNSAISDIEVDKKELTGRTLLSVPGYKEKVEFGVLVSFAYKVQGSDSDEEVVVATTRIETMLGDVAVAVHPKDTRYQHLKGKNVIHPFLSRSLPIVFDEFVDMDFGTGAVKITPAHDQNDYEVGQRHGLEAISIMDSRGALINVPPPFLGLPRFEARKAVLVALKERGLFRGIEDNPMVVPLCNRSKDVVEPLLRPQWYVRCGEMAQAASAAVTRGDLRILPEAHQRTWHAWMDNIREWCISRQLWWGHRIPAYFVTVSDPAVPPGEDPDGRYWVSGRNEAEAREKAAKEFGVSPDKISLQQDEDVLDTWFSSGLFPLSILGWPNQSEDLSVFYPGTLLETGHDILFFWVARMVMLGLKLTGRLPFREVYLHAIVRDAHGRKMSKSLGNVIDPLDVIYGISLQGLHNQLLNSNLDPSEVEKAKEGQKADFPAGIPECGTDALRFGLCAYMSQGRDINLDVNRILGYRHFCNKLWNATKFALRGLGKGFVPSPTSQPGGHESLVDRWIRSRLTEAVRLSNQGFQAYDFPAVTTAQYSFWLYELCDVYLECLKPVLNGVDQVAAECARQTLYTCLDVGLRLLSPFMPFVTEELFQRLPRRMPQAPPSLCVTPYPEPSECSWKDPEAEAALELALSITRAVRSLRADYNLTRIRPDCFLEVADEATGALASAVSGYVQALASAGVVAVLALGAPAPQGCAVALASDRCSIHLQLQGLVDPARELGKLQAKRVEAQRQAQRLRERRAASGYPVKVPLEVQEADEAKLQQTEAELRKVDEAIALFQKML
UniProt P09622, whole entry: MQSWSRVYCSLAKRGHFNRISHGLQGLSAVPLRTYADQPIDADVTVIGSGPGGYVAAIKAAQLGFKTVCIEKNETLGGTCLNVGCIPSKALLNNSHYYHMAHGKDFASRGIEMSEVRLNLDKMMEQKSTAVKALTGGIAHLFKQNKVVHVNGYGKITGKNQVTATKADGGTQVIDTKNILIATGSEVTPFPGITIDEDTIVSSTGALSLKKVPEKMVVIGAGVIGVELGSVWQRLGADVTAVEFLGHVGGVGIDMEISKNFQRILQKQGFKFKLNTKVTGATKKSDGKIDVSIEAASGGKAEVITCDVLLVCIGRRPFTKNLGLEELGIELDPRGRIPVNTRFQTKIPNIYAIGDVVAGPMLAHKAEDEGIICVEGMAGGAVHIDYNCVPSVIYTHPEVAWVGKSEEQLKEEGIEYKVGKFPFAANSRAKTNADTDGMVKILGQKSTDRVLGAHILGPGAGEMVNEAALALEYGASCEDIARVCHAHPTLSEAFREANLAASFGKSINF
UniProt P11388: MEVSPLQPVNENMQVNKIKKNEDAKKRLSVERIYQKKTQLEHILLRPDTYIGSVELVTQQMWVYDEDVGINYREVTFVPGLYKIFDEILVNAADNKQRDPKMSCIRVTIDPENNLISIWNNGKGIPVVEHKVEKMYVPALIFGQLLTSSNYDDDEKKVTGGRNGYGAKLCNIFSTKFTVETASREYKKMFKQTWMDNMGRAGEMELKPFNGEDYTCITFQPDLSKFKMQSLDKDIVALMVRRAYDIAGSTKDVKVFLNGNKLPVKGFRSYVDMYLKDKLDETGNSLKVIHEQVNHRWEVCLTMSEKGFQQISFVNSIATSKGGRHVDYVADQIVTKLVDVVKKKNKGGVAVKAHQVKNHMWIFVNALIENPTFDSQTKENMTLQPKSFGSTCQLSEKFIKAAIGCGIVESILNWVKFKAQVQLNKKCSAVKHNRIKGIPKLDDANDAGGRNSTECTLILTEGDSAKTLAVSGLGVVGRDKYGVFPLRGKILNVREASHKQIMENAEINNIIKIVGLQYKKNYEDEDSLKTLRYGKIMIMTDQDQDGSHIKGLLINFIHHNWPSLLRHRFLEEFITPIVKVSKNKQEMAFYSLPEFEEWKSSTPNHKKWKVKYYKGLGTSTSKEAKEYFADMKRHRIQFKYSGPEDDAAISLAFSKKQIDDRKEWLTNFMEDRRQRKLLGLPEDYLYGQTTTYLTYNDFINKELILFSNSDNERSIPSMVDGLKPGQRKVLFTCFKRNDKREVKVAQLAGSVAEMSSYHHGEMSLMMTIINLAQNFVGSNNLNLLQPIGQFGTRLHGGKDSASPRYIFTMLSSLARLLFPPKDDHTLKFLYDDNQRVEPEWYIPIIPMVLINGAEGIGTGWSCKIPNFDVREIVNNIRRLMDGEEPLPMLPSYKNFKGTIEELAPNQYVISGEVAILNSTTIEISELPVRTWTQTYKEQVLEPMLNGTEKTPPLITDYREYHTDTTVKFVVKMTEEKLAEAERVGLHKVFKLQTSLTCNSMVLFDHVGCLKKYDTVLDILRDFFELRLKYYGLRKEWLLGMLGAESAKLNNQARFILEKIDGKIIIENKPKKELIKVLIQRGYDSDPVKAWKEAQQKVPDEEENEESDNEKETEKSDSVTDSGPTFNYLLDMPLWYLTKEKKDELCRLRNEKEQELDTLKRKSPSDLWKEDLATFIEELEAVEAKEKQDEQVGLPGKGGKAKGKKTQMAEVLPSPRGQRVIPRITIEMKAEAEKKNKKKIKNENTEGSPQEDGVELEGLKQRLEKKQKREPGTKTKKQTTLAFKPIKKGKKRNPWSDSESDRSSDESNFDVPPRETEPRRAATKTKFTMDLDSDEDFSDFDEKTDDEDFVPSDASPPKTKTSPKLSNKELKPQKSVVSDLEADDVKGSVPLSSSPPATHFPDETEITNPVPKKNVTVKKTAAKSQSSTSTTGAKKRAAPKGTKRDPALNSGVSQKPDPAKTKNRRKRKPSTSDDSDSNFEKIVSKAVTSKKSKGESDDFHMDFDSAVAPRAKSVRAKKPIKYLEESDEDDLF
UniProt P24534: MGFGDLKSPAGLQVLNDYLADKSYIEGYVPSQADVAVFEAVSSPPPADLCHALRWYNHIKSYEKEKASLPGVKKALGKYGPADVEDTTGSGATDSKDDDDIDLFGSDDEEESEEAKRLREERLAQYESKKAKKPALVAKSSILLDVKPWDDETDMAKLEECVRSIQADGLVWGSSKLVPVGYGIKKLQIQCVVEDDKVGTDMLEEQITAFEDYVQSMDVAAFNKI
UniProt P20618: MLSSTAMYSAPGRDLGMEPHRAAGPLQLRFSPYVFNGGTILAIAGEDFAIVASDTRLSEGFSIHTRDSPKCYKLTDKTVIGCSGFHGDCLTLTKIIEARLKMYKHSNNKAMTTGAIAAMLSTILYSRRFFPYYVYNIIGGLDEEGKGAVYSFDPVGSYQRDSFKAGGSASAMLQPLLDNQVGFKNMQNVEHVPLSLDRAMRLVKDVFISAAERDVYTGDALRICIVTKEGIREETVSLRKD
UniProt P11831: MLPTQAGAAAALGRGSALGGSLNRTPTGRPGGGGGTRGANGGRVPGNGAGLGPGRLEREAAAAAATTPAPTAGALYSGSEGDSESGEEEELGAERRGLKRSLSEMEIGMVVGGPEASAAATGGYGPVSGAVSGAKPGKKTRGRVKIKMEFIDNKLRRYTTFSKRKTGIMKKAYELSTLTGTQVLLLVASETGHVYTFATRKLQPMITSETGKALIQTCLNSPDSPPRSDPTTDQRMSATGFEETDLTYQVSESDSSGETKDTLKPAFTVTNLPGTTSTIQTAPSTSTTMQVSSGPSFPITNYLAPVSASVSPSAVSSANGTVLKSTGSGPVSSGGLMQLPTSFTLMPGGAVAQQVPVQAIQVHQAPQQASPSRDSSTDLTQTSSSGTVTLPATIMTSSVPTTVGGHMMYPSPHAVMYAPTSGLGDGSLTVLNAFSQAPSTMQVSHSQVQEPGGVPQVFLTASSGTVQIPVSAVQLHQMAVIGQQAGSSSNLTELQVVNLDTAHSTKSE
UniProt P18065: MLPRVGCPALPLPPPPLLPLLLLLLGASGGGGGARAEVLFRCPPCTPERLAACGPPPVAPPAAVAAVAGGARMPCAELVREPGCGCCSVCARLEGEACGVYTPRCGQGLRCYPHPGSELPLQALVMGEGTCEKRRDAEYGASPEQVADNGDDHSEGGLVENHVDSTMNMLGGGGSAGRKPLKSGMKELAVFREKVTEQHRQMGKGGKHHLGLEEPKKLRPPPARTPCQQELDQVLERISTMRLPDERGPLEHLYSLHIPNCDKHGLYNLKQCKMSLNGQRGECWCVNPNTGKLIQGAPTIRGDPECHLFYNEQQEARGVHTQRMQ
UniProt P16083: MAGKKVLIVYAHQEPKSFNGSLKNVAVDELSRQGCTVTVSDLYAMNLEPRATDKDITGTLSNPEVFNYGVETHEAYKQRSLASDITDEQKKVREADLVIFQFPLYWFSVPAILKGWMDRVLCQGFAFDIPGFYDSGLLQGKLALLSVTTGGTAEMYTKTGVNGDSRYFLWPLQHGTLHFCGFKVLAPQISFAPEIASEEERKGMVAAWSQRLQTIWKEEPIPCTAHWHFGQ
UniProt P15813: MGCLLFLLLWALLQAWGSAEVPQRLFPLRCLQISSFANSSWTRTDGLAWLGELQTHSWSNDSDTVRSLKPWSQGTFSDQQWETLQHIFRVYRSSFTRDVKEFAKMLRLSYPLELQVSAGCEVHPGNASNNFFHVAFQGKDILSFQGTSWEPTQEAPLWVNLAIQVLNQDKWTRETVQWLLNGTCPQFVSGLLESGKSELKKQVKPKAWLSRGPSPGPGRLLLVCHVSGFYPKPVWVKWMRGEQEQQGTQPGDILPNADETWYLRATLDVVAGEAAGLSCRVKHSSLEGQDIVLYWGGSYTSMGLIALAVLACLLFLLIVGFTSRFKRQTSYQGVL
UniProt P23786: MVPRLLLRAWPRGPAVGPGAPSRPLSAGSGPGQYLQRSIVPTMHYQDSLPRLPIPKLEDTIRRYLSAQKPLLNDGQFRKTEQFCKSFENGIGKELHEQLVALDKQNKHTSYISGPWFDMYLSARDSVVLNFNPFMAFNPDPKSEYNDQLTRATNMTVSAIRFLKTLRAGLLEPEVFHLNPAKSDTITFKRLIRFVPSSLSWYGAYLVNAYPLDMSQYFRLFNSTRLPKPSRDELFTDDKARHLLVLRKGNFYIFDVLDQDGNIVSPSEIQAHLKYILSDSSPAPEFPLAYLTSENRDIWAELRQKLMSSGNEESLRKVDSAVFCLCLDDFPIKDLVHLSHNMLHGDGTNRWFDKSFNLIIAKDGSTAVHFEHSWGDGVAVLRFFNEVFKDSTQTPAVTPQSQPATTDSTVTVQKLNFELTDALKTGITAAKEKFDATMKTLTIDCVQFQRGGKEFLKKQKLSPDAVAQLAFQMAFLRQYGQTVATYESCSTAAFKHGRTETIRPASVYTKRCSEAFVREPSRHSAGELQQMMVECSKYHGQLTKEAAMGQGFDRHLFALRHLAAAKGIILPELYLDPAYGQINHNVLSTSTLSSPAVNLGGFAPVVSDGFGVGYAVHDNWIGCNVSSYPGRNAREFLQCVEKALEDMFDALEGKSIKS

Compound: Nc1nc2c(ncn2[C@@H]2O[C@H](COP(=O)(O)OP(=O)(O)OP(=O)(O)O)[C@@H](O)[C@H]2O)c(=O)[nH]1 [guanosine triphosphate]
Test: NP40-soluble protein abundance relative to vehicle (solubility fold change) (ratio); higher = more soluble protein in presence of GTP
How it was run: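 In three independent experiments, Jurkat crude lysate made by Dounce homogenisation was treated for 10 min at room temperature and then 3 min at 37 °C with eight concentrations ranging from 0.1 to 10 mM. It was then solubilised with 0.8% NP40 plus benzonase for 60 min at 4 °C and ultracentrifuged. The supernatant was TMT-labelled for LC-MS/MS, and each value is the fold change against the detergent-processed vehicle for the same replicate, using vsn-normalised intensities.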

Target	NP40-soluble protein abundance (concentration: 0.1mM)	NP40-soluble protein abundance (concentration: 0.5mM)	NP40-soluble protein abundance (concentration: 1mM)	NP40-soluble protein abundance (concentration: 2mM)	NP40-soluble protein abundance (concentration: 4mM)	NP40-soluble protein abundance (concentration: 6mM)	NP40-soluble protein abundance (concentration: 8mM)	NP40-soluble protein abundance (concentration: 10mM)
UniProt P13807 and related entries	1.18 ± 0.19	1.25 ± 0.44	1.28 ± 0.61	1.34 ± 0.74	1.25 ± 0.61	1.1 ± 0.59	1.05 ± 0.52	1.02 ± 0.59
PFKL (UniProt P17858)	1.07 ± 0.087	1.13 ± 0.15	1.06 ± 0.12	1.12 ± 0.17	1.1 ± 0.15	1.09 ± 0.18	1.05 ± 0.1	1.04 ± 0.13
VARS (UniProt P26640)	1.04 ± 0.025	1.08 ± 0.072	1.02 ± 0.072	1.05 ± 0.098	1.05 ± 0.093	1.06 ± 0.12	1.04 ± 0.11	1.02 ± 0.088
UniProt P25398	0.866 ± 0.011	0.869 ± 0.028	0.965 ± 0.091	0.903 ± 0.12	0.835 ± 0.15	0.805 ± 0.19	0.725 ± 0.12	0.75 ± 0.17
DLD (UniProt P09622)	0.961 ± 0.017	1.01 ± 0.052	0.952 ± 0.059	0.966 ± 0.08	0.965 ± 0.079	0.994 ± 0.094	0.947 ± 0.071	0.924 ± 0.064
UniProt P17252	1.002 ± 0.004	1.01 ± 0.023	0.961 ± 0.033	0.926 ± 0.043	0.921 ± 0.05	0.932 ± 0.047	0.913 ± 0.025	0.885 ± 0.063
UniProt P15529 and related entries	0.955 ± 0.056	0.943 ± 0.045	0.956 ± 0.063	0.951 ± 0.12	0.91 ± 0.1	0.911 ± 0.069	0.932 ± 0.094	0.936 ± 0.039
UniProt P11388 and related entries	1.06 ± 0.054	1.14 ± 0.036	1.2 ± 0.022	1.43 ± 0.052	1.73 ± 0.1	1.94 ± 0.16	2.01 ± 0.18	2.12 ± 0.15
UniProt P09525 and related entries	0.977 ± 0.076	0.957 ± 0.085	0.898 ± 0.1	0.899 ± 0.075	0.873 ± 0.11	0.856 ± 0.059	0.828 ± 0.12	0.826 ± 0.093
EEF1B2 (UniProt P24534)	0.85 ± 0.084	0.866 ± 0.059	1.01 ± 0.093	0.993 ± 0.14	1.04 ± 0.23	1.01 ± 0.15	1.03 ± 0.1	1.1 ± 0.21
MIF (UniProt P14174)	0.966 ± 0.12	0.926 ± 0.12	0.945 ± 0.12	0.952 ± 0.1	0.962 ± 0.18	0.906 ± 0.096	0.956 ± 0.14	0.973 ± 0.11
HIST1H1C (UniProt P16403)	0.984 ± 0.038	1.11 ± 0.074	1.18 ± 0.072	1.22 ± 0.048	1.23 ± 0.096	1.38 ± 0.074	1.26 ± 0.1	1.78 ± 0.15
CD53 (UniProt P19397)	0.92 ± 0.025	0.964 ± 0.016	0.971 ± 0.013	0.965 ± 0.034	0.896 ± 0.054	0.957 ± 0.037	0.869 ± 0.06	0.933 ± 0.053
UniProt P10155 and related entries	1.08 ± 0.086	1.09 ± 0.13	0.932 ± 0.047	0.968 ± 0.12	0.948 ± 0.087	0.931 ± 0.068	0.905 ± 0.024	0.863 ± 0.094
ZNF8 (UniProt P17098)	0.987 ± 0.11	0.998 ± 0.11	0.967 ± 0.071	1 ± 0.12	0.952 ± 0.071	0.927 ± 0.091	0.995 ± 0.13	1.01 ± 0.1
PSMB1 (UniProt P20618)	1.03 ± 0.064	1.07 ± 0.12	1.09 ± 0.13	1.11 ± 0.17	1.11 ± 0.15	1.15 ± 0.2	1.13 ± 0.21	1.1 ± 0.22
SRF (UniProt P11831)	0.972 ± 0.1	0.904 ± 0.23	0.964 ± 0.25	0.908 ± 0.16	0.922 ± 0.15	0.932 ± 0.11	0.923 ± 0.18	0.965 ± 0.16
IGFBP2 (UniProt P18065)	0.9 ± 0.042	0.884 ± 0.053	0.983 ± 0.035	0.997 ± 0.043	0.995 ± 0.028	0.934 ± 0.062	1.02 ± 0.054	1.05 ± 0.087
EPRS (UniProt P07814)	1.06 ± 0.093	1.14 ± 0.16	1.14 ± 0.19	1.22 ± 0.25	1.24 ± 0.26	1.27 ± 0.3	1.26 ± 0.29	1.19 ± 0.28
CSRP1 (UniProt P21291)	0.905 ± 0.097	0.9 ± 0.092	0.88 ± 0.08	0.858 ± 0.067	0.87 ± 0.06	0.826 ± 0.054	0.885 ± 0.1	0.852 ± 0.1
UniProt P16083 and related entries	0.997 ± 0.078	0.999 ± 0.022	0.987 ± 0.098	0.906 ± 0.059	0.95 ± 0.089	0.923 ± 0.087	0.937 ± 0.071	0.933 ± 0.071
UniProt P19525 and related entries	0.968 ± 0.043	1.03 ± 0.046	0.937 ± 0.048	0.975 ± 0.014	0.978 ± 0.029	0.972 ± 0.027	0.962 ± 0.067	0.954 ± 0.073
IMPDH2 (UniProt P12268)	1 ± 0.031	1.14 ± 0.13	1.15 ± 0.2	1.22 ± 0.27	1.24 ± 0.28	1.2 ± 0.3	1.14 ± 0.26	1.1 ± 0.25
UniProt P15813	1.03 ± 0.093	1.01 ± 0.12	1.03 ± 0.058	1.01 ± 0.048	0.993 ± 0.1	1.03 ± 0.073	0.996 ± 0.14	1.1 ± 0.15
UniProt P20226 and related entries	1.14 ± 0.12	1.03 ± 0.043	1.05 ± 0.082	1.01 ± 0.05	1.12 ± 0.21	1.02 ± 0.067	1.07 ± 0.1	1.05 ± 0.028
SFPQ (UniProt P23246)	0.998 ± 0.053	0.989 ± 0.086	1.03 ± 0.13	1.23 ± 0.14	1.61 ± 0.22	1.85 ± 0.28	2 ± 0.35	2.04 ± 0.36
HSPA5 (UniProt P11021)	0.914 ± 0.091	0.952 ± 0.088	0.937 ± 0.088	0.896 ± 0.11	0.877 ± 0.093	0.916 ± 0.089	0.924 ± 0.079	0.921 ± 0.092
UQCRC2 (UniProt P22695)	0.998 ± 0.029	0.963 ± 0.043	0.953 ± 0.035	0.943 ± 0.067	0.958 ± 0.06	0.928 ± 0.063	0.899 ± 0.022	0.871 ± 0.018
CPT2 (UniProt P23786)	0.997 ± 0.02	1.02 ± 0.033	0.901 ± 0.011	0.915 ± 0.038	0.865 ± 0.011	0.882 ± 0.031	0.847 ± 0.016	0.827 ± 0.044
TOP1 (UniProt P11387)	0.97 ± 0.049	0.996 ± 0.054	0.972 ± 0.065	1.02 ± 0.07	1.13 ± 0.077	1.25 ± 0.081	1.36 ± 0.1	1.42 ± 0.099

Taken from above.
Entry for IGFBP2 (UniProt P18065) under NP40-soluble protein abundance (concentration: 10mM): 1.05 ± 0.087
Entry for MIF (UniProt P14174) under NP40-soluble protein abundance (concentration: 0.5mM): 0.926 ± 0.12
